Laboratory results: PubChem BioAssay AID493014 (National Center for Advancing Translational Sciences (NCATS), 2011)
Out of some 340,000 compounds screened, about 170 (0.05%) were called active. Inconclusive results, whose numbers are uncertain, are shown with a selection of clear calls. Calls come from the whole dose curve; as a rule, active = well fitted inhibition curve with a large enough effect in the signal ratio, with a control signal flat (not every such curve was filed as active); inconclusive = small, poorly fitted or top-dose-only effect, or effect the other way, or a change in a side signal; inactive = flat fitted curve, though single readings scatter; the % refers to the signal ratio. Potencies beside an inconclusive call are fits to weak or partial responses and may not hold up.

Experiment: qHTS Assay to Find Inhibitors of Chronic Active B-Cell Receptor Signaling;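 for activity change, negative = inhibition: plate controls were basal doxycycline-induced cells for no effect and cells given 10 µM MG132 for full effect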
Settings: ABC-DLBCL IkBa-CBG/CBR reporter, luminescence ratio (green luciferase fused to IkBa over red control in TMD8 lymphoma cells), 4 h; activity change, negative = inhibition: at 46.1 µM (top of the series) unless noted
Procedure, shortened: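 Cell line TMD8 (human ABC DLBCL), stably expressing tet-inducible CBG68-IkBa fusion and CBR; IMDM/0.5% FBS; cpd up to 46 uM; dox induction, 4 h, 37C/5% CO2; dual luminescence; green/red ratio; MG132 control.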
Potency is the fitted concentration of half-maximal effect.

Row | SMILES | activity change, negative = inhibition | Potency
1 | COc1ccccc1C(=O)Nc1ccc2c(c1)CN(Cc1cnc(C)s1)CC2 | inconclusive: -9.45% | –
2 | Cc1ccc(-c2c(C(=O)NCc3ccccc3)oc(=O)c3ccccc23)cc1 | inactive | –
3 | COC(=O)/C(C#N)=C/c1ccc(N2CCOCC2)c([N+](=O)[O-])c1 | inactive: -19.8% | –
4 | CCN(CC)CCOC(=O)c1cccc(OC)c1 | inconclusive: -1.51% | –
5 | CCOC(=O)C1CCCN(S(=O)(=O)c2ccc(S(=O)(=O)N3CCCC3)cc2)C1 (configuration not stated) | inactive: -7.41% | –
6 | Cn1c(CO)cnc1SCc1ccc(F)cc1 | inactive: 2.26% | –
7 | O=C(NN=C(Cc1ccccc1)Cc1ccccc1)c1ccccc1O | inconclusive: 234% | –
8 | O=C(N/N=C/C1CC=CCC1)c1ccc(Cl)cc1O (configuration not stated) | – | inconclusive: 1.84 µM [rising, full curve, poor fit]
9 | O=C(NCCN1CCc2ccccc2C1)Nc1ccc([N+](=O)[O-])cc1 | inconclusive: 14.2% | –
10 | COc1ccc(-c2nc(Cn3c(SCc4ccc(F)cc4)nc4ccncc43)c(C)o2)cc1OC | – | inconclusive: 20.6 µM [falling, single point]
11 | Cc1ccc(/C=N/NC(=O)CCCOc2ccc(Cl)cc2Cl)cc1[N+](=O)[O-] | – | inconclusive: 6.51 µM [falling, single point]
12 | O=C(COC(=O)c1cccc(S(=O)(=O)N2CCc3ccccc32)c1)NC1CCS(=O)(=O)C1 (configuration not stated) | inconclusive: 0.346% | –
13 | COC(=O)CCCC1=CC2=CC(=O)C(C)(OC(=O)c3cccs3)C(=O)C2=CN1CCc1c[nH]c2ccccc12 (configuration not stated) | inactive: 8.21% | –
14 | Cc1ccc(-c2nn(-c3ccccc3)cc2/C=N/NC(=O)c2ccc(Br)o2)cc1 | inconclusive: 2.01% | –
15 | CC1(C)C2CCC1(C)C(OC(=O)c1ccc(O)cc1)C2 (configuration not stated) | inconclusive: 19.2% | –
16 | Nc1ccc(C(=O)Nc2cccc(NC(=O)c3ccc(N)cc3)c2)cc1 | – | inconclusive: 11.2 µM [falling, partial curve]
17 | O=C(Nc1nnc(-c2ccccc2Cl)o1)c1cc2cc([N+](=O)[O-])ccc2s1 | inactive: -1.42% | –
18 | CC(C)OC(=O)CC12CN3CC(CC(=O)OC(C)C)(CN(C1)C(=O)c1ccccc1C3=O)C2=O | inconclusive: 2.23% | –
19 | O=[N+]([O-])c1ccc2c(c1)Nc1nc3ccccc3nc1N2 | inconclusive: 14.7% | –
20 | COc1ccc(-c2cc(-c3ccco3)[nH]c(=O)c2C#N)cc1 | inactive: 7.27% | –
21 | COc1cccc(N/C(N)=N/c2nc(C(F)(F)F)cc(C(F)(F)F)n2)c1 | inconclusive: 1.27% | –
22 | CCOC(=O)c1ccccc1NC(=O)Cn1c(-c2nonc2N)nc2ccccc21 | – | inconclusive: 11.2 µM [falling, single point]
23 | O=C(c1cc(Cl)nc2ccccc12)N1CCN(S(=O)(=O)c2cccc(C(F)(F)F)c2)CC1 | inactive: -0.319% | –
24 | Cc1cccc(C)c1NC(=O)c1cc(S(=O)(=O)N2CCc3ccccc32)cn1C | inactive: 10.4% | –
25 | CCOc1ccc(C(=O)CC(C(=O)O)N2CCN(Cc3ccccc3)CC2)cc1 (configuration not stated) | inconclusive: 11.6% | –
26 | O=C(c1ccccc1)c1ccc2c(c1)OCCOCCOCCO2 | – | inconclusive: 22.4 µM [falling, single point]

Row | SMILES | activity change, negative = inhibition | Potency
27 | O=C(/C=C/c1ccco1)NCCc1ccccc1 | – | inconclusive: 35.5 µM [rising, partial curve]
28 | O=C(CSc1nc2ccccc2c(=O)[nH]1)Nc1ccccc1O | – | inconclusive: 22.4 µM [falling, single point]
29 | CCN(CC)c1ccc(NC(=O)c2cnn(CC)c2)cc1 | inconclusive: -9.82% | –
30 | CCc1nc(CN2CCCC(C(=O)c3ccc4c5c(cccc35)CC4)C2)c(C)[nH]1 (configuration not stated) | inconclusive: 9.62% | –
31 | O=C(O)COc1ccc(-c2nccc(-c3ccccn3)n2)cc1 | – | inconclusive: 22.4 µM [falling, single point]
32 | Cc1cccc(-c2noc(CCC(=O)NC3CCCC3)n2)c1 | inconclusive: 2.07% | –
33 | Cc1cc(C)c(NC(=O)c2cccc3c2C(=O)N(C2CCCCC2)C3)c(C)c1 | inconclusive: 0.0985% | –
34 | CCOc1c(Cl)cc(C(=O)Nc2cccc(C(=O)O)c2)cc1Cl | – | inconclusive: 22.4 µM [falling, single point]
35 | COc1cc(/C=C(\C#N)c2nc3ccc(C)cc3[nH]2)cc([N+](=O)[O-])c1O | inconclusive: 2.89% | –
36 | N#Cc1c(=O)c2nc(NCc3ccccc3)ncc2n2ccccc12 | – | inconclusive: 6.51 µM [falling, full curve, poor fit]
37 | N#CC1=C(N)Oc2c(ccc3cccnc23)C1c1ccncc1 (configuration not stated) | inconclusive: 18.7% | –
38 | CSc1nc(-c2ccc(Cl)cc2)c(C#N)c(=O)[nH]1 | inconclusive: 13.9% | –
39 | CCOc1cc(Br)cc(/C=C2\SC(=Nc3ccccc3)NC2=O)c1O | inconclusive: 9.17% | –
40 | O=C(O)CCc1ccc(-c2ccccc2)n1-c1cccc(O)c1 | inconclusive: 7.1% | –
41 | COc1cc2c(c3oc(-c4ccccc4)cc(=O)c13)C=CC(C)(C)O2 | – | inconclusive: 35.5 µM [falling, single point]
42 | Cc1ccc(N2CCN(C(=O)N3CCCC3)CC2)cc1C | inconclusive: -20.9% | –
43 | O=C(COC(=O)c1cc(-c2ccc(F)cc2)nc2ccccc12)NCC1CCCO1 (configuration not stated) | inconclusive: 0.226% | –
44 | COCCOC(=O)c1[nH]c2c(c1C)C(=O)CC(c1cc(OC)ccc1OC)C2 (configuration not stated) | inactive: 0.234% | –
45 | Cc1cc(C)cc(NC(=O)CN2C(=O)c3ccccc3Sc3ccc(C(=O)N4CCOCC4)cc32)c1 | – | inconclusive: 11.2 µM [falling, single point]
46 | Cc1ccc2nc(N/N=C/c3ccco3)cc(C)c2c1 | inconclusive: 1.41% | –
47 | O=C(O)C1CCN(S(=O)(=O)c2cccc3nonc23)CC1 | inactive: -7.01% | –
48 | CCOC(=O)c1nncc(-c2ccccc2)n1 | inactive: 2.44% | –
49 | C=CCc1ccccc1OCC(O)CN1CCN(c2ccc(C)cc2)CC1 (configuration not stated) | inconclusive: 2.91% | –
50 | CCNC(=O)COc1ccc(-c2ccccc2)cc1 | inconclusive: -0.314% | –
51 | Cc1cc(NC(=O)Nc2cccs2)no1 | inconclusive: 10.7% | –
52 | CCc1ccc2[nH]c(C(=O)Nc3ccc4c(c3)OCO4)cc2c1 | inconclusive: -16.7% | –

Quoted at random: 4 records from the list, in no set order.
Row | SMILES | activity change, negative = inhibition | Potency
19 | O=[N+]([O-])c1ccc2c(c1)Nc1nc3ccccc3nc1N2 | inconclusive: 14.7% | –
46 | Cc1ccc2nc(N/N=C/c3ccco3)cc(C)c2c1 | inconclusive: 1.41% | –
25 | CCOc1ccc(C(=O)CC(C(=O)O)N2CCN(Cc3ccccc3)CC2)cc1 (configuration not stated) | inconclusive: 11.6% | –
34 | CCOc1c(Cl)cc(C(=O)Nc2cccc(C(=O)O)c2)cc1Cl | – | inconclusive: 22.4 µM [falling, single point]
